Record: PubChem BioAssay AID504786 (Drosophila RNAi Screening Center, 2011)
Test: 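Fly genes required for HIF-dependent transcription when hypoxia is mimicked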 (primary screen). System: Drosophila S2 cells with a stable HIF luciferase reporter. Knock-down reagent: long dsRNA against Drosophila genes, about 0.2 µg dsRNA per well of a 384-well plate. Duration: three days of knock-down, then 20 h of DFO before reading. Challenge: desferrioxamine (DFO) at 100 µM, an iron chelator that mimics hypoxia, for 20 h. Measurement: 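HIF reporter luminescence in cells given 100 µM DFO for 20 h, using the mouse ldh-a hypoxia-response element, scored as per-plate z-scores; higher means greater loss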. Reading the numbers: z-score: higher = stronger loss of HIF reporter signal.
The deposit covers about 21,000 reagents; below is a random part of those that have a named target and a result. 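Primary screen; positive scores mean lost reporter signal, so the sign may be inverted from the usual convention.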 Reagents against one gene are numbered here. A plus sign joins genes that one reagent is predicted to hit.

Depletion of CG15614 (GeneID 36899) gave: z-score, replicate 1 = -0.3; z-score, replicate 2 = -0.4. For LKRSDH (GeneID 34064) the deposit lists z-score, replicate 1 = -0.3; z-score, replicate 2 = -0.4. Silencing of CG8673 (GeneID 34105) resulted in: z-score, replicate 1 = -0.3; z-score, replicate 2 = -0.3. Knock-down of Oat (GeneID 40145) gave: z-score, replicate 1 = -0.3; z-score, replicate 2 = -0.3. CG15717 (GeneID 32262) showed z-score, replicate 1 = -0.2; z-score, replicate 2 = -0.3. With knock-down of CG7706 (GeneID 42244), the record shows z-score, replicate 1 = -0.2; z-score, replicate 2 = 0.8.

For alrm (GeneID 43074), the entry reads z-score, replicate 1 = 0.1; z-score, replicate 2 = 0.7. CG14879 (GeneID 41982) showed z-score, replicate 1 = -0.3; z-score, replicate 2 = -0.5. Depletion of CG6357 (GeneID 36532) resulted in: z-score, replicate 1 = -0.2; z-score, replicate 2 = -0.9. Against ppk3 (GeneID 246504) the deposit lists z-score, replicate 1 = -0.2; z-score, replicate 2 = -0.5. Knock-down of CG8369 (GeneID 50005) came out at: z-score, replicate 1 = 0.3; z-score, replicate 2 = -0.4. Arpc2 (GeneID 35311) scored z-score, replicate 1 = 0.2; z-score, replicate 2 = 0.4.

Silencing of tup (GeneID 35147) resulted in: z-score, replicate 1 = -0.4; z-score, replicate 2 = -0.4. Knock-down of Gyc76C + CG42637 gave: z-score, replicate 1 = -0.5; z-score, replicate 2 = -1. CG4332 (GeneID 32267) scored z-score, replicate 1 = -0.4; z-score, replicate 2 = -0.6. Knock-down of eIF4E3 (GeneID 38923) came out at: z-score, replicate 1 = -0.1; z-score, replicate 2 = 0.2. BoYb (GeneID 40512) gave z-score, replicate 1 = -0.3; z-score, replicate 2 = -0.3. CG30015 (GeneID 36147) #1 gave z-score, replicate 1 = 0; z-score, replicate 2 = 0.

CG30015 (GeneID 36147) #2 scored z-score, replicate 1 = -0.4; z-score, replicate 2 = -0.4. Silencing of CG30015 (GeneID 36147) #3 came out at: z-score, replicate 1 = -0.3; z-score, replicate 2 = -0.4. Pph13 (GeneID 33239) showed z-score, replicate 1 = -0.3; z-score, replicate 2 = -0.8. Silencing of CG5070 (GeneID 32705) resulted in: z-score, replicate 1 = -0.3; z-score, replicate 2 = -0.5. Knock-down of zld (GeneID 32994) came out at: z-score, replicate 1 = -0.7; z-score, replicate 2 = -0.5. With knock-down of Pka-C2 (GeneID 43644), the screen gave z-score, replicate 1 = -0.1; z-score, replicate 2 = 0.2.

For MED14 (GeneID 38073) the deposit lists z-score, replicate 1 = 0; z-score, replicate 2 = 0.1. Knock-down of Usp39 (GeneID 32881) gave: z-score, replicate 1 = 0.3; z-score, replicate 2 = 1.1. For Fntb (GeneID 41989) the deposit lists z-score, replicate 1 = -0.3; z-score, replicate 2 = -0.6. Against HP4 (GeneID 38887), the values are z-score, replicate 1 = -0.4; z-score, replicate 2 = -0.4. Against shd (GeneID 39592), the entry reads z-score, replicate 1 = 0.2; z-score, replicate 2 = 0.1. Depletion of peg (GeneID 50050) resulted in: z-score, replicate 1 = -0.5; z-score, replicate 2 = -0.2.

CG9825 (GeneID 37624) scored z-score, replicate 1 = -0.2; z-score, replicate 2 = -0.5. For CG17110 (GeneID 42729), the entry reads z-score, replicate 1 = -0.4; z-score, replicate 2 = -0.5. Depletion of dmrt99B (GeneID 43495) resulted in: z-score, replicate 1 = 2.3; z-score, replicate 2 = -0.9. Depletion of Kdm4A (GeneID 35744) resulted in: z-score, replicate 1 = -0.4; z-score, replicate 2 = -0.5. galene (GeneID 38133) #1 showed z-score, replicate 1 = -0.4; z-score, replicate 2 = -0.3. Depletion of galene (GeneID 38133) #2 gave: z-score, replicate 1 = -0.3; z-score, replicate 2 = -0.9.

After knock-down of CG12784 (GeneID 41903), the record shows z-score, replicate 1 = -0.2; z-score, replicate 2 = 0.1. Against eIF4G2 (GeneID 42819) the deposit lists z-score, replicate 1 = -0.1; z-score, replicate 2 = -0.4. With knock-down of CG4815 (GeneID 43360) the results were z-score, replicate 1 = -0.2; z-score, replicate 2 = -0.4. Against CG13855 (GeneID 42629), the values are z-score, replicate 1 = 0.2; z-score, replicate 2 = 0.

In a second layout: results already given
Gene	reagent no.	z-score, replicate 1	z-score, replicate 2
CG4332 (GeneID 32267)	1	-0.4	-0.6
eIF4E3 (GeneID 38923)	1	-0.1	0.2
BoYb (GeneID 40512)	1	-0.3	-0.3
CG30015 (GeneID 36147)	1	0	0
CG30015 (GeneID 36147)	2	-0.4	-0.4
